# In US5902815A, “Use of 5HT-2A serotonin agonists to prevent adverse effects of NMDA receptor hypofunction” (priority 1996, dated 1999):
# What was measured:
# [1] = tested on: D2 class of dopamine receptors; settings: cited from earlier work
# [2] = tested on: vacuolated pyramidal neurons of posterior cingulate and retrosplenial (PC/RS) cortices, MK-801 neurotoxicity; experiment: Blocking MK-801 neurotoxicity (vacuolated PC/RS cortical neurons) in rats by serotonergic agents; assay type: in vivo, adult female rats; settings: Rattus norvegicus, Pyramidal neuron, ip, 4 h, read-out: ED50 against the neurotoxic action of MK-801, lisuride; n=45
# Experimental: Each test rat also received a 5HT-2A/2C agonist drug (LSD, DOB, DOI, or DOM), while control rats received an inert carrier liquid as a placebo. After 4 hours, the rats were sacrificed, and brain tissue from specific regions which are susceptible to NR/hypo damage (layers III and IV of the posterior cingulate (PC) and retrosplenial (RS) cortices) were examined for vacuoles in the neurons, which are an indicator of toxic neuronal injury induced by NMDA receptor hypofunction.
# DOI was purchased from Research Biochemicals International (Natick, Mass.).
# For each test agent, at least 20 rats were used, and at least four dosages were tested.
# The rats were sacrificed four hours after drug administration, and brain tissue from the PC/RS region was histopathologically evaluated by previously described methods using double-blinded techniques (Olney et al 1991). The number of vacuolated PC and RS neurons were counted on each side of the brain at a rostrocaudal level immediately posterior to where the corpus callosum ceases decussating across the midline (approximately 5.6 mm caudal to Bregma; Paxinos & Watson, The Rat Brain in Stereotaxic Coordinates, 2d Ed., 1986).
# This drug is widely used in Europe, and is a 5HT-2A agonist but a 5HT-2C antagonist.
# It is described in Nozulak et al 1993.
# 5HT2C receptors = settings: Burris et al 1991 or other literature; cited from earlier work
compound,measurement,setting,value
CCN(CC)C(=O)N[C@H]1C=C2c3cccc4[nH]cc(c34)C[C@H]2N(C)C1 [Lisuride],activity at D2 dopamine receptors,[1],agonist at the D2 class of dopamine receptors
same,ED50,[2],0.17 mg/kg
same,activity at 5HT-2C receptors,5HT2C receptors,antagonism and suppression of activity
